# Measured values reported in PubChem BioAssay AID587 (National Center for Advancing Translational Sciences (NCATS), 2007).
# Hit rate of the full screen: of about 59,000 compounds, about 35 (0.06%) were called active. Inconclusive means that the source gave no clear call. Such entries were picked first, then a sample of the others. Rule as the data show it: active = max dye-equivalent concentration above about 10 nM; inconclusive = between about 1.1 nM and that limit; inactive = weaker than that.
# Experiment: qHTS Assay for Spectroscopic Profiling in Texas Red Spectral Region
# Conditions: Compound fluorescence, Texas Red channel, 547/618 nm; active compounds read high
# In short: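 qHTS profiling of intrinsic compound fluorescence; 100 mM Tris pH 8.0; 15 min RT; ex 547 / em 618 nm; response expressed as Texas Red dye-equivalent concentration from six-point plate standard.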
row,SMILES,max dye-equivalent concentration
1,CCn1c(SCC(=O)c2ccccc2)nnc1-c1cc2cc(Br)ccc2o1,inconclusive: 1.2 nM
2,Oc1ccccc1C1=Nc2nc3ccccc3n2C(c2ccccc2)C1 (centres undefined),inconclusive: 1.1 nM
3,Clc1ccc(-c2noc(CN3CCN(c4ccccc4)CC3)n2)cc1,inconclusive: 1.2 nM
4,CCOC(=O)C1=C(Cn2cnc3ccccc32)NC(=O)NC1c1cc(C)ccc1C (centres undefined),inconclusive: 1.1 nM
5,Cc1cc(C)c(C(N)=O)c(Nc2ccc3c(c2)OCCO3)n1,inconclusive: 1.6 nM
6,CCOC(=O)C1CCCN(CC(=O)/C=C2/N(C)c3ccccc3C2(C)C)C1 (centres undefined),inconclusive: 1.4 nM
7,O=C(O)c1ccccc1NS(=O)(=O)c1cccc2cccnc12,inconclusive: 1.1 nM
8,N=c1c(C(=O)NCc2ccco2)cc2c(=O)n3ccccc3nc2n1Cc1ccc(Cl)cc1,inconclusive: 1.5 nM
9,OCCN(Cc1ccccc1)Cc1ccccc1Cl,inconclusive: 1.6 nM
10,Cc1cccc2cc(CN(Cc3cccs3)C(c3nnnn3C3CCCC3)C(C)C)c(=O)[nH]c12 (centres undefined),inconclusive: 1.1 nM
11,CCCCOC(=O)c1ccc(NC(=O)c2ccoc2C)cc1,inconclusive: 1.6 nM
12,COc1ccccc1C1SCCN1S(=O)(=O)c1cccc(C(F)(F)F)c1 (centres undefined),inconclusive: 1.8 nM
13,COc1ccc(Cc2nn3c(-c4ccccc4Br)nnc3s2)cc1,inconclusive: 1.7 nM
14,Cc1csc(/C(=N\O)c2csc(C)n2)n1,inconclusive: 1.3 nM
15,CN(C)CCNC(=O)COc1cccc(Cl)c1,inactive
16,COc1c2c(c3c(c1CCC(=O)O)OC(C)(C)C=C3)OC(C)(C)C=C2,inconclusive: 1.2 nM
17,Cn1c(CCNC(=O)c2cccs2)nnc1SCC(=O)Nc1nc(-c2ccccc2)cs1,inconclusive: 1.9 nM
18,O=c1c(-c2ccc(F)cc2)nc2cnc(N3CCOCC3)nc2n1CCc1ccccc1,inconclusive: 1.1 nM
19,CN(C)S(=O)(=O)N1CCc2ccccc21,inactive
20,Cc1oc(-c2ccccc2F)nc1CN1CCC(C(=O)NC2CC2)CC1,inconclusive: 1.2 nM
21,CN(c1ccc(C(=O)N2CCN(c3ccc(F)cc3)CC2)cc1)S(C)(=O)=O,inconclusive: 2.6 nM

row,SMILES,max dye-equivalent concentration
1,Clc1ccc(C2CC(c3ccco3)n3ncnc3N2)cc1Cl (centres undefined),inconclusive: 1.8 nM
2,O=C(CCSc1nc(-c2ccco2)cc(C(F)(F)F)n1)NCCc1ccccc1,inconclusive: 1.5 nM
3,Cc1c(OCc2nn[nH]n2)ccc2c3c(c(=O)oc12)CCCC3,inconclusive: 1.1 nM
4,O=C(NCCc1ccccc1)c1ccc(-n2cnnn2)cc1,inconclusive: 2.5 nM
5,CCCn1c(NC(=O)C2COc3ccccc3O2)nc2ccccc21 (centres undefined),inconclusive: 2.1 nM
6,CC(C)(C)C(=O)Oc1cc(N)n(S(=O)(=O)c2ccccc2)n1,inconclusive: 1.2 nM
7,O=C(CCNS(=O)(=O)c1ccccc1F)NCc1ccc2c(c1)OCO2,inconclusive: 1.4 nM
8,CCN(CCCNC(=O)C1CCC(=O)N1Cc1ccc(C)cc1)c1cccc(C)c1 (centres undefined),inconclusive: 1.4 nM
9,CC1(C)Cc2c(sc3c2c(=N)n(Cc2ccco2)c(=O)n3CC(=O)Nc2ccccc2)CO1,inconclusive: 1.3 nM
10,CC(C)CC1(C)NC(=O)N(CC(=O)NC(=O)Nc2ccc3c(c2)OCCO3)C1=O (centres undefined),inconclusive: 1.4 nM
11,Cn1c(=O)c(C(=O)CSc2nncs2)c(N)n(Cc2ccccc2)c1=O,inconclusive: 1.2 nM
12,Cc1ccc(Nc2nc(CSc3nnnn3C)cs2)cc1,inconclusive: 1.4 nM
13,COc1cc(CN2CCC(C(=O)N3CCN(c4ccccc4F)CC3)CC2)ccc1O,inconclusive: 2 nM
14,NC[C@@H]1O[C@@H](O[C@H]2[C@@H](O)[C@H](O[C@@H]3[C@H](O)[C@H](N)C[C@H](N)[C@H]3O[C@@H]3O[C@@H](CO)[C@H](O)[C@H](O)[C@@H]3N)O[C@H]2CO)[C@H](N)[C@H](O)[C@@H]1O,inconclusive: 1.1 nM
15,Nc1ccc(N=Nc2c(S(=O)(=O)O)cc3ccccc3c2S(=O)(=O)O)cc1,inconclusive: 1.4 nM
16,Cc1nc(N)sc1-c1nnc(SCC(=O)Nc2nccs2)n1C,inconclusive: 2.6 nM
17,C=CCOc1ccc(C2c3c(oc4ccccc4c3=O)C(=O)N2CCCN2CCOCC2)cc1 (centres undefined),inconclusive: 1.3 nM
18,COc1cc(OC)cc(-n2nc(C(=O)NCCCN3CCOCC3)c3ccccc3c2=O)c1,inconclusive: 1.5 nM
19,NS(=O)(=O)c1cc(C(=O)O)c(NCc2ccco2)cc1Cl,inconclusive: 1.8 nM
20,O=C(O)c1cccc(C(=O)Nc2cccc(NC(=O)C3CCCO3)c2)c1 (centres undefined),inconclusive: 1.1 nM
21,CCOC(=O)CSC1=C(C#N)C(c2ccc(Cl)cc2)C(C(=O)OC)C(=O)N1 (centres undefined),inconclusive: 1.2 nM

row,SMILES,max dye-equivalent concentration
1,O=S(=O)(NCC1OCCc2ccccc21)c1ccc(S(=O)(=O)N2CCOCC2)cc1 (centres undefined),inconclusive: 1.2 nM
2,O=C(c1ccccc1)N1CCN(C(=O)c2ccccc2Br)CC1,inconclusive: 2 nM
3,COc1ccccc1CN1CCCC2(CCN(C(=O)c3c(C)noc3C)CC2)C1,inconclusive: 1.9 nM
4,CCN(CC(=O)NCc1ccc(F)cc1)Cc1nc2ccccc2c(=O)[nH]1,inconclusive: 1.1 nM
5,CS(=O)(=O)N(CC(=O)NCc1ccncc1)Cc1ccc(Cl)cc1,inconclusive: 1.3 nM
6,O=C(NC1CCCCC1)N(CCN1CCCC1)Cc1cc2cc3c(cc2[nH]c1=O)OCCO3,inconclusive: 1.1 nM
7,Cc1ccc(Cl)cc1N1CCN(S(=O)(=O)c2ccc3c(c2)oc(=O)n3C)CC1,inconclusive: 1.2 nM
8,CC(C)(C)C(=O)Nc1ccc(-c2cn3ccsc3n2)cc1,inconclusive: 1.4 nM
9,CCSc1ccc2nnc(-c3ccc(F)cc3)n2n1,inconclusive: 2.2 nM
10,Cn1c(=O)c2[nH]c(CCCCc3nc4c([nH]3)c(=O)n(C)c(=S)n4C)nc2n(C)c1=S,inconclusive: 1.2 nM
11,O=C(COC(=O)C1(c2ccccc2)CC1)N1CCN(c2ccc(F)cc2)CC1,inconclusive: 1.1 nM
12,Cn1nc(C(C)(C)C)cc1C(=O)Nc1nc2c(s1)C(=O)CC(C)(C)C2,inconclusive: 1.2 nM
13,CCOC(=O)C(C)Sc1nnc(-c2ccccc2O)n1Cc1ccccc1 (centres undefined),inconclusive: 1.7 nM
14,COc1ccc(-n2c(/C=C(\C)O)nc(=O)c3c(C)cc(C)nc32)cc1,inconclusive: 1.1 nM
15,O=C(O)CSC1c2ccccc2C(=O)N1Cc1ccccc1 (centres undefined),inconclusive: 1.1 nM
16,COC(=O)c1cc(CSc2nc3ccc(C)cc3[nH]2)oc1C,inconclusive: 1.8 nM
17,Cc1ccc(C)c(N2CCN(C(=O)C3CCN(c4nc(C)cc(C)n4)CC3)CC2)c1,inconclusive: 1.4 nM
18,Cn1c(=O)c2[nH]c(C3CCCC3)nc2n(C)c1=O,inactive
19,CCSc1ccccc1C(=O)N1CCN(Cc2ccc3c(c2)OCO3)CC1,inconclusive: 2 nM
20,CCSc1ccccc1C(=O)Nc1cccc(OC)c1,inconclusive: 1.2 nM
21,CCCc1ccc(OCCNC(=O)CC)cc1,inconclusive: 1.8 nM

# In the list so far, 2 contain a CF3 group.
row,SMILES,max dye-equivalent concentration
12,COc1ccccc1C1SCCN1S(=O)(=O)c1cccc(C(F)(F)F)c1 (centres undefined),inconclusive: 1.8 nM
2,O=C(CCSc1nc(-c2ccco2)cc(C(F)(F)F)n1)NCCc1ccccc1,inconclusive: 1.5 nM

# The list goes on:

row,SMILES,max dye-equivalent concentration
1,Cc1cc(=O)[nH]c2ccccc12,inconclusive: 1.1 nM
2,COc1ccc(N2CCN(C(c3nnnn3CCc3ccccc3)C(C)C)CC2)cc1 (centres undefined),inconclusive: 1.3 nM
3,CC(=O)NCCOc1nc(N(C)C)nc(N2CCOCC2)n1,inconclusive: 2.4 nM
4,CC(=O)Nc1ccc2nc(SCC(=O)O)sc2c1,inconclusive: 1.8 nM
5,Cc1c(C(=O)NCc2cccs2)oc2ccccc12,inconclusive: 1.1 nM
6,COCCn1c(=O)c(-c2cccs2)nc2cnc(OCc3ccccc3)nc21,inactive
7,O=C(COc1ccc(-n2cnnn2)cc1)NC1CCCCC1,inconclusive: 1.2 nM
8,Nc1nc(N)c(CCCCc2ccccc2)c(N)n1,inactive
9,CCCCNC(=O)CCn1c(=O)c2ccccc2n(CC(=O)Nc2ccccc2OCC)c1=O,inconclusive: 1.7 nM
10,CCOC(=O)N1CCN(CC(=O)c2c(C)[nH]c3ccccc23)CC1,inconclusive: 1.1 nM
11,Cc1c(C(=O)N2CCOCC2)sc2nc(-c3ccccc3)cn12,inconclusive: 1.1 nM
12,OCCNc1nc(-c2ccccc2)c2ccccc2n1,inconclusive: 1.8 nM
13,COc1cccc(NS(=O)(=O)c2ccc3[nH]cc(C(=O)NCCN4CCOCC4)c(=O)c3c2)c1,inactive
14,O=C(NCc1ccccc1)C1CCN(C(=O)NCc2ccccc2)CC1,inconclusive: 3.1 nM
15,CCN(CC)CCC[C@H](C)Nc1c2ccc(Cl)cc2nc2ccc(OC)cc12,inactive
16,COC(=O)c1ccccc1NC(=O)c1cc2n(n1)C(C(F)F)CC(C(F)F)N2 (centres undefined),inconclusive: 1.1 nM
17,COc1cccc(-c2nn(-c3ccccc3)cc2CO)c1,inconclusive: 1.9 nM
18,O=C(Nc1ccc(-c2nnc(-c3ccccc3)o2)cc1)C1CCCO1 (centres undefined),inconclusive: 1.2 nM
19,O=C(CSc1nnnn1C1CCCC1)N1CCCc2ccccc21,inconclusive: 2.4 nM
20,Cc1ccc(C)c(NC(=O)C(Sc2nncn2C)c2ccccc2)c1 (centres undefined),inconclusive: 1.3 nM
21,CC(C)(C)N(Cc1cc2ccccc2[nH]c1=O)C(=O)C1CCCCC1,inconclusive: 2 nM

# Structures above that have an aryl thioether with sulfur outside any ring:
row,SMILES,max dye-equivalent concentration
1,CCn1c(SCC(=O)c2ccccc2)nnc1-c1cc2cc(Br)ccc2o1,inconclusive: 1.2 nM
17,Cn1c(CCNC(=O)c2cccs2)nnc1SCC(=O)Nc1nc(-c2ccccc2)cs1,inconclusive: 1.9 nM
2,O=C(CCSc1nc(-c2ccco2)cc(C(F)(F)F)n1)NCCc1ccccc1,inconclusive: 1.5 nM
11,Cn1c(=O)c(C(=O)CSc2nncs2)c(N)n(Cc2ccccc2)c1=O,inconclusive: 1.2 nM
12,Cc1ccc(Nc2nc(CSc3nnnn3C)cs2)cc1,inconclusive: 1.4 nM
16,Cc1nc(N)sc1-c1nnc(SCC(=O)Nc2nccs2)n1C,inconclusive: 2.6 nM
9,CCSc1ccc2nnc(-c3ccc(F)cc3)n2n1,inconclusive: 2.2 nM
13,CCOC(=O)C(C)Sc1nnc(-c2ccccc2O)n1Cc1ccccc1 (centres undefined),inconclusive: 1.7 nM
16,COC(=O)c1cc(CSc2nc3ccc(C)cc3[nH]2)oc1C,inconclusive: 1.8 nM
19,CCSc1ccccc1C(=O)N1CCN(Cc2ccc3c(c2)OCO3)CC1,inconclusive: 2 nM
20,CCSc1ccccc1C(=O)Nc1cccc(OC)c1,inconclusive: 1.2 nM
4,CC(=O)Nc1ccc2nc(SCC(=O)O)sc2c1,inconclusive: 1.8 nM
19,O=C(CSc1nnnn1C1CCCC1)N1CCCc2ccccc21,inconclusive: 2.4 nM
20,Cc1ccc(C)c(NC(=O)C(Sc2nncn2C)c2ccccc2)c1 (centres undefined),inconclusive: 1.3 nM
